Measurements: the supplement of paper PMC10849652
The other results are listed elsewhere or left out.

Amino acid sequences for entries named in this document (tags omitted). A change or cut given only in a name is not applied to a line headed by its entry.
UniProt Q9NTG7: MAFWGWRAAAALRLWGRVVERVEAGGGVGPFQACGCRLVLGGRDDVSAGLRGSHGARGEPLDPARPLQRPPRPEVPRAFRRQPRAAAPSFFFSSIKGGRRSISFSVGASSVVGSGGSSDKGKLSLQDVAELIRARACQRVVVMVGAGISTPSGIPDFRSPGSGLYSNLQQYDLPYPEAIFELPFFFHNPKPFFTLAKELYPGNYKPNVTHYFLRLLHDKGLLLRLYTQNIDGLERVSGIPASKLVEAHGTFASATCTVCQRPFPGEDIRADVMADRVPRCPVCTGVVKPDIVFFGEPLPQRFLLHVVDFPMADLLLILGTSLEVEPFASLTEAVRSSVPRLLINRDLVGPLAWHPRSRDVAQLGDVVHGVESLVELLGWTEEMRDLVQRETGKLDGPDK
UniProt Q16181: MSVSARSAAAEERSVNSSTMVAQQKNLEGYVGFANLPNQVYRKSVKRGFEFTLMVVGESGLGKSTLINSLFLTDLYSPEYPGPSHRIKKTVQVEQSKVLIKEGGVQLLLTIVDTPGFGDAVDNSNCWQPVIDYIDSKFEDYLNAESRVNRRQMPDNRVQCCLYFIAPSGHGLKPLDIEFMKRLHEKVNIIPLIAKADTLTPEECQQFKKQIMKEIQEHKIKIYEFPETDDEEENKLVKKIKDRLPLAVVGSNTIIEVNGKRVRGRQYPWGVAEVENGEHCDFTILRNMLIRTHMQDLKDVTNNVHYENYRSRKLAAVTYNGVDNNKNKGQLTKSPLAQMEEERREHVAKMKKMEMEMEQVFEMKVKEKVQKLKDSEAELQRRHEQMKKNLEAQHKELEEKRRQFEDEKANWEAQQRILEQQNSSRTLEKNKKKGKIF
UniProt Q2M3G4: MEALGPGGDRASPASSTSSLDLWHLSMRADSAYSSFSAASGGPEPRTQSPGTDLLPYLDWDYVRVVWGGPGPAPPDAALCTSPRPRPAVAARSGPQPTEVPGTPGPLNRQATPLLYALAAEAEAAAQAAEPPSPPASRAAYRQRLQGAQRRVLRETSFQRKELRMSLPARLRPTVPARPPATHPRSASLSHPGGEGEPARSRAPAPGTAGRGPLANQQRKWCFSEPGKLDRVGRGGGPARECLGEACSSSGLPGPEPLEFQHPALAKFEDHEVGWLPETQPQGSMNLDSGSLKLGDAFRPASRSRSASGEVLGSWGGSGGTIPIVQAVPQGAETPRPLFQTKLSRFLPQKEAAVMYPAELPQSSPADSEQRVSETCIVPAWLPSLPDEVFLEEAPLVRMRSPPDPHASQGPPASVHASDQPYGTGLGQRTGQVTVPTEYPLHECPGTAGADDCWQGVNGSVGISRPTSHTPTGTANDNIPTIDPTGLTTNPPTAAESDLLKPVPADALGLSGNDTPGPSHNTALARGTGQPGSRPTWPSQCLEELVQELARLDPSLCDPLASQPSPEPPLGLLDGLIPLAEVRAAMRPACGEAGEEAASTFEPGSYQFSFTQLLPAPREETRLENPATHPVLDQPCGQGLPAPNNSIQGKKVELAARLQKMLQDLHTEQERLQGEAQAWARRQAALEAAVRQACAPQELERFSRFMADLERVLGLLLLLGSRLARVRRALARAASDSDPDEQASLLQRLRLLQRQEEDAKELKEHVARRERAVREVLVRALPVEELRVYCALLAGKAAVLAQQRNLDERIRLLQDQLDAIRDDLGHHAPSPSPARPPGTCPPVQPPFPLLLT
UniProt P55822: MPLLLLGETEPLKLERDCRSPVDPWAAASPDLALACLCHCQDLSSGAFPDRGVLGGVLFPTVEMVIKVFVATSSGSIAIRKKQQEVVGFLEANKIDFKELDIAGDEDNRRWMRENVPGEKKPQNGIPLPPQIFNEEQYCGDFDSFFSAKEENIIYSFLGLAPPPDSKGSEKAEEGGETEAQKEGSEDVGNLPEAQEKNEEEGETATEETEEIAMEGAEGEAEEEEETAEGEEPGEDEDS
UniProt Q93073: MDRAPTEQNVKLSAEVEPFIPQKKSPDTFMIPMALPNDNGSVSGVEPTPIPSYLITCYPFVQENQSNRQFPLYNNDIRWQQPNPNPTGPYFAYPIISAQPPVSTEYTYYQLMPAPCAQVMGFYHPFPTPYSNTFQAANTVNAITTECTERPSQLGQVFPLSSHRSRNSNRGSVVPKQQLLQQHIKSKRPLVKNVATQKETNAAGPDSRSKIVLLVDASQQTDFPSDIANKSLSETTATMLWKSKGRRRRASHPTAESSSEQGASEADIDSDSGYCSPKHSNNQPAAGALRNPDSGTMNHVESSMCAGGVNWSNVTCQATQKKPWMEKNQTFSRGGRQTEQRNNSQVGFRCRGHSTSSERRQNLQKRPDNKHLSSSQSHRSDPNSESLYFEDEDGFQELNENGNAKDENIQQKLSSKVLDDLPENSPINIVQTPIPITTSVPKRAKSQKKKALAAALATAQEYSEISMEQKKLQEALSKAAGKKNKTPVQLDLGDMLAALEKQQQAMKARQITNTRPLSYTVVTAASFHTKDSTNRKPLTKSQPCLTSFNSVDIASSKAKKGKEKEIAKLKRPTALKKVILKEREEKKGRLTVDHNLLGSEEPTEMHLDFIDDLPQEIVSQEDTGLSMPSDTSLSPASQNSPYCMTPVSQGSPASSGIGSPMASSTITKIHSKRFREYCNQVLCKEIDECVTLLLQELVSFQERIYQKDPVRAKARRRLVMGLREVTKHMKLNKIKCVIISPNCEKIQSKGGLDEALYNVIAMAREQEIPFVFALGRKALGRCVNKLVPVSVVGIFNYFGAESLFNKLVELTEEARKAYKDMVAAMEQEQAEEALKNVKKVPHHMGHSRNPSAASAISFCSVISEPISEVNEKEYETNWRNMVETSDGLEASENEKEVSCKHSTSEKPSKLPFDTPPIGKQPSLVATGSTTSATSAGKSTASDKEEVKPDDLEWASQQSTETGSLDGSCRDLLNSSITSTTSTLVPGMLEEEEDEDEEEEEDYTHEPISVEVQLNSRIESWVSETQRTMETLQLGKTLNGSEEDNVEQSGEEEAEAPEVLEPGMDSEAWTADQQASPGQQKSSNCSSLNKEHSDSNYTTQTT
UniProt P04279: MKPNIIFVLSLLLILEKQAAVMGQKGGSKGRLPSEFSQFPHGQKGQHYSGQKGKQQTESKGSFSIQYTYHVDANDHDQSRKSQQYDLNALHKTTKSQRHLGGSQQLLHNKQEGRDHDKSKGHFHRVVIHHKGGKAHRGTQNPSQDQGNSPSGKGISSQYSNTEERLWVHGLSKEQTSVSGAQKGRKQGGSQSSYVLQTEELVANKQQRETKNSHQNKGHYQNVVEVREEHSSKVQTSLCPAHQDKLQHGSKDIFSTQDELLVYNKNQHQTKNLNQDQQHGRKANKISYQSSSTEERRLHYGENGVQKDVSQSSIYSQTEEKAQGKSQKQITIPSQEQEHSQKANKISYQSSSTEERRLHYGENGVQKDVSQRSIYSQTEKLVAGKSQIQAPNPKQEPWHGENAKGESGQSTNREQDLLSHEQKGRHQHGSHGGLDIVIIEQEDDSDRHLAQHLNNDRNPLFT
UniProt O75326: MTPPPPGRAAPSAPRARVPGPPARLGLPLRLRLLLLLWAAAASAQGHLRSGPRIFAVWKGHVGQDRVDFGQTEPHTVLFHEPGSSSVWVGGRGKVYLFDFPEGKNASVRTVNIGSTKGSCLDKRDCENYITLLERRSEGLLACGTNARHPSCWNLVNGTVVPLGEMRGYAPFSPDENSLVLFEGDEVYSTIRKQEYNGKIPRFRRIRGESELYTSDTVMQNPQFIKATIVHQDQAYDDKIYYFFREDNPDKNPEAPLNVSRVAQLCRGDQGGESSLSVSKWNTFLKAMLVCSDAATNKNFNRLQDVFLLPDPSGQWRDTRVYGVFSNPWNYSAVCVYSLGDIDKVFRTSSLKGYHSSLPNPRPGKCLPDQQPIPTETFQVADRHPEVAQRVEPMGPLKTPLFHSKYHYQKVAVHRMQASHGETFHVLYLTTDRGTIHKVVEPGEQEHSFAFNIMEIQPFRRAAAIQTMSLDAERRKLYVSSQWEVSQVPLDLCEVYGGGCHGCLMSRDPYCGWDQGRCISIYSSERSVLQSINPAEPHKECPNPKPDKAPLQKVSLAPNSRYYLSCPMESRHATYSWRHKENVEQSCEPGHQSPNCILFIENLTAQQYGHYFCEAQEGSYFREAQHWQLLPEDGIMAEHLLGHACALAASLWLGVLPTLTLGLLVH
UniProt P60059: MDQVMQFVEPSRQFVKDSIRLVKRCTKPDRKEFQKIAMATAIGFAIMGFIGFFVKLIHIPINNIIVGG
UniProt Q8NC51: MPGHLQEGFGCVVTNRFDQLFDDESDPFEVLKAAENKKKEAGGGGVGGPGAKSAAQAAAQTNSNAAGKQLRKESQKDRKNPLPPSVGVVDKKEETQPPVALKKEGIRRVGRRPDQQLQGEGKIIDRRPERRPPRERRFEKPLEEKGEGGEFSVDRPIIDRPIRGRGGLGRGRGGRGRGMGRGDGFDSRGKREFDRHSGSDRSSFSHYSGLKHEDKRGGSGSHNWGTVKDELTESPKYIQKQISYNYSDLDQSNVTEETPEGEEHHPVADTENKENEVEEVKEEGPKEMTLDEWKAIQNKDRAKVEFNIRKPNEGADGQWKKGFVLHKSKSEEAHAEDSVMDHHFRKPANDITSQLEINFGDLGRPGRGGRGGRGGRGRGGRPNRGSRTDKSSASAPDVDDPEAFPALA
UniProt O43255: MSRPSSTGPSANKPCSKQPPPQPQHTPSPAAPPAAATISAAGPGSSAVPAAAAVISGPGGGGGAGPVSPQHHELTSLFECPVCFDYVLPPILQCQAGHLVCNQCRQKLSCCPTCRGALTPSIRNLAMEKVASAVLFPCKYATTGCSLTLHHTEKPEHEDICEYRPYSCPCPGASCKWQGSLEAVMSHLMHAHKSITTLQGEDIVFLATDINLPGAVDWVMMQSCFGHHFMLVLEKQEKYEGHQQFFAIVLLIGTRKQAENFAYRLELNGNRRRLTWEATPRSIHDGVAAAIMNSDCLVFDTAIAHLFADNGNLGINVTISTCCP
UniProt P29353: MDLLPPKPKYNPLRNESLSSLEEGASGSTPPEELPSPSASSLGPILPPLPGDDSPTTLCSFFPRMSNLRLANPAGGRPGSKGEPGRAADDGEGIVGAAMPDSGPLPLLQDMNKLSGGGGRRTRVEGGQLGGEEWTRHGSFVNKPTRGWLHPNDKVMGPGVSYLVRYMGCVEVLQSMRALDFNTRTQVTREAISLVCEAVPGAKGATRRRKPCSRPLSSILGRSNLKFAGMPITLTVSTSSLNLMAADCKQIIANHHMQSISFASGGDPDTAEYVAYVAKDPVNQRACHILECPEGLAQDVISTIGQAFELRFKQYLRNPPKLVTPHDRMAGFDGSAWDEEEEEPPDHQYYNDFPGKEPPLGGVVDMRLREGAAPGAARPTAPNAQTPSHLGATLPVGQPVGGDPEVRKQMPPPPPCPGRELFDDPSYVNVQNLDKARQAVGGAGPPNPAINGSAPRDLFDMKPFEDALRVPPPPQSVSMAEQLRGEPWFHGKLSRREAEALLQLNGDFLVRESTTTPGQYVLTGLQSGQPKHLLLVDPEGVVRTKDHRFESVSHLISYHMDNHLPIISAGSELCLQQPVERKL
UniProt Q86XK3: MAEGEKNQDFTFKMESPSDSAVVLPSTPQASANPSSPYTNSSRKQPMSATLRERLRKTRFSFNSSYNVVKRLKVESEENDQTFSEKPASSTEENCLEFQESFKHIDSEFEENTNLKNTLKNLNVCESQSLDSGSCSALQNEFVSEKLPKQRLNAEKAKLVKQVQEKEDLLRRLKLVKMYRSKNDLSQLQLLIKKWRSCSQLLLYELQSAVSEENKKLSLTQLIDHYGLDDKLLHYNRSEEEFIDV
UniProt Q8N196: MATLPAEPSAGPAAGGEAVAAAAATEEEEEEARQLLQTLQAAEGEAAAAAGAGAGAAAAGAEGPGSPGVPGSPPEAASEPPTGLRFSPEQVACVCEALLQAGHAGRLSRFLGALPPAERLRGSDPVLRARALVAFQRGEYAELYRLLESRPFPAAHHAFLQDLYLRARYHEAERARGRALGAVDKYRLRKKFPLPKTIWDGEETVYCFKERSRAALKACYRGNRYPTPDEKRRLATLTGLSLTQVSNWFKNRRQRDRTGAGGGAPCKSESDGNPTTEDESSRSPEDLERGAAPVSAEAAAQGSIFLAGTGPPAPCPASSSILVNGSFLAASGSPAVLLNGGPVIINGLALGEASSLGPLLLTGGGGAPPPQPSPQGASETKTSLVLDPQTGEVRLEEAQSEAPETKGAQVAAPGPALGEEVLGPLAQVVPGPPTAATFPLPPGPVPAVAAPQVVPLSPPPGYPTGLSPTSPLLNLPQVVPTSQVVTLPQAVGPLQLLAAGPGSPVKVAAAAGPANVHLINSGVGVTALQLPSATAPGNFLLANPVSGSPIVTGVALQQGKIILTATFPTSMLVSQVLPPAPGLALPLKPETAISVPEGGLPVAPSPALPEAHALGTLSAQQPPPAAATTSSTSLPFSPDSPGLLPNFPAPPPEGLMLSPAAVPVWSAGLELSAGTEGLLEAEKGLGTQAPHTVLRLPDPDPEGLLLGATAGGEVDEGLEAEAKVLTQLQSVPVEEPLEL

Assays:
Test in all cases: log2 fold change, soluble protein after heating vs DMSO (PISA); higher = thermal stabilisation; K562 cells, 10 uM, 30 min; active = over 0.2 and 3.5 SD of the protein, either way, in both replicates (recomputed)
[1] = compound: NC(=O)c1cnc(N[C@@H]2CCCC[C@@H]2N)nc1Nc1cccc(-n2nccn2)c1
Procedure, shortened: (§1)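 K562 cells at 2×10^6 cells/mL were treated for 30 min with 10 μM compound, and aliquots were heated for 3 min over 48°C-58°C before pooling. Extraction used PBS with 0.5% NP-40 at 4°C, and soluble protein was the supernatant after 21,000xg for 90 min, measured by TMTpro 16plex LC-MS/MS with channel sums equalised. Thermal stability values, relative to control samples and from duplicates, are log2 fold changes.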

[2] = compound: NC1(c2ccc(-c3nc4ccn5c(=O)[nH]nc5c4cc3-c3ccccc3)cc2)CCC1
Procedure, shortened: as §1

[3] = compound: NCC(=O)Nc1ccc(-n2nc(C(F)(F)F)cc2-c2ccc3c(ccc4ccccc43)c2)cc1
Procedure, shortened: as §1

vorinostat = compound: O=C(CCCCCCC(=O)Nc1ccccc1)NO [vorinostat]
Procedure, shortened: as §1

citarinostat = compound: O=C(CCCCCCNC(=O)c1cnc(N(c2ccccc2)c2ccccc2Cl)nc1)NO [citarinostat]
Procedure, shortened: as §1

silmitasertib = compound: O=C(O)c1ccc2c(c1)nc(Nc1cccc(Cl)c1)c1ccncc12 [silmitasertib]
Procedure, shortened: as §1

[4] = compound: c1cc(OCCN2CCCCC2)cc(-c2n[nH]c3ccc(-c4nnc[nH]4)cc23)c1
Procedure, shortened: as §1

[5] = compound: NC(=O)Nc1cc(-c2cccc(F)c2)sc1C(=O)N[C@H]1CCCNC1
Procedure, shortened: as §1

entinostat = compound: Nc1ccccc1NC(=O)c1ccc(CNC(=O)OCc2cccnc2)cc1 [entinostat]
Procedure, shortened: as §1

[6] = compound: O=C1NC(=O)C(c2cnc3ccccn23)=C1c1cn2c3c(cc(F)cc13)CN(C(=O)N1CCCCC1)CC2
Procedure, shortened: as §1

Measured: log2 fold change

SERPINB7 (UniProt O75635)
inactive: [1] -0.084 | [2] 0.002 | [3] -0.155 | vorinostat 0.203 | citarinostat -0.107 | silmitasertib -0.058 | [4] 0.911

SIRT3 (UniProt Q9NTG7)
inactive: [1] -0.091 | [2] -0.017 | [3] -0.011 | vorinostat -0.063 | citarinostat -0.073 | silmitasertib -0.056 | [4] 0.028

SF1 (UniProt H7C0N4)
inactive: [1] 0.062 | [2] 0.09 | [3] 0.026 | citarinostat -0.049 | silmitasertib -0.05 | [4] 0.069

SH2D2A isoform 2 (UniProt Q9NP31)
inactive: [1] 0.212 | [2] -0.041 | vorinostat -0.101 | citarinostat 0.07 | silmitasertib 0.006 | [4] 0.08

SIK2 (UniProt Q9H0K1)
inactive: [2] -0.365 | citarinostat 0.106 | silmitasertib 0.221 | [4] -0.34

SH3GL3 isoform 3 (UniProt Q99963)
inactive: [5] -0.049 | [2] 0.08 | [3] 0.081 | entinostat -0.033 | citarinostat 0.212 | silmitasertib -0.1 | [4] -0.071

SEPTIN7 isoform 2 (UniProt Q16181)
inactive: [1] 0.074 | [2] 0.234 | silmitasertib 0.12

SH2B1 (UniProt Q9NRF2)
inactive: [3] -0.071

SERAC1 (UniProt Q96JX3)
inactive: [2] -0.176 | citarinostat 0.04 | silmitasertib -0.026 | [4] -0.091

SHROOM1 (UniProt Q2M3G4)
inactive: [1] 0.128 | [6] -0.142

SEPTIN2 (UniProt B5MCX3)
inactive: [1] -0.195 | [3] -0.33 | citarinostat -0.226 | [4] -0.12

SH3BGR (UniProt P55822)
inactive: [1] -0.039 | [2] -0.143 | vorinostat 0.228 | citarinostat 0.046 | silmitasertib -0.039 | [6] 0.056 | [4] 0.017

SERPINA3 (UniProt P01011)
inactive: citarinostat -0.035 | [6] -0.135 | [4] 0.357

SHROOM4 (UniProt Q9ULL8)
inactive: [1] 0.035 | [2] -0.059 | [3] 0.124 | vorinostat -0.128 | silmitasertib 0.196

SIVA1 (UniProt O15304)
inactive: [6] -0.128

SIGIRR (UniProt H0YDR5)
inactive: vorinostat -0.094 | citarinostat 0 | [4] -0.126

SHANK2 isoform 3 (UniProt Q9UPX8)
inactive: [5] -0.275 | entinostat -0.027 | [6] -0.125

SELENOP (UniProt P49908)
inactive: [5] 0.061 | [2] -0.047 | entinostat -0.06 | silmitasertib 0.101

SECISBP2L (UniProt Q93073)
inactive: [3] 0.13

SERPINB6, A0A2R8Y7E5
inactive: [2] -0.176 | [3] -0.329 | silmitasertib 0.08 | [6] -0.124

SEMG1 (UniProt P04279)
inactive: [2] 2.9 | silmitasertib 0.116

Nine successive records out of the list so far, quoted:
SHROOM1 (UniProt Q2M3G4)
inactive: [1] 0.128 | [6] -0.142

SEPTIN2 (UniProt B5MCX3)
inactive: [1] -0.195 | [3] -0.33 | citarinostat -0.226 | [4] -0.12

SH3BGR (UniProt P55822)
inactive: [1] -0.039 | [2] -0.143 | vorinostat 0.228 | citarinostat 0.046 | silmitasertib -0.039 | [6] 0.056 | [4] 0.017

SERPINA3 (UniProt P01011)
inactive: citarinostat -0.035 | [6] -0.135 | [4] 0.357

SHROOM4 (UniProt Q9ULL8)
inactive: [1] 0.035 | [2] -0.059 | [3] 0.124 | vorinostat -0.128 | silmitasertib 0.196

SIVA1 (UniProt O15304)
inactive: [6] -0.128

SIGIRR (UniProt H0YDR5)
inactive: vorinostat -0.094 | citarinostat 0 | [4] -0.126

SHANK2 isoform 3 (UniProt Q9UPX8)
inactive: [5] -0.275 | entinostat -0.027 | [6] -0.125

SELENOP (UniProt P49908)
inactive: [5] 0.061 | [2] -0.047 | entinostat -0.06 | silmitasertib 0.101

(next part)

SEMA7A (UniProt O75326)
inactive: [3] 0.112 | vorinostat 0.191 | [6] 0.048

SEC61G (UniProt P60059)
inactive: [5] -0.239 | [2] 0.043 | entinostat 0.239 | citarinostat 0.1 | silmitasertib 0.049 | [6] 0.124 | [4] -0.327

SERBP1 isoform 3 (UniProt Q8NC51)
inactive: [1] 0.037 | [2] 0.068 | vorinostat 0.01 | citarinostat -0.027 | silmitasertib 0.09 | [6] -0.151 | [4] -0.139

SERPING1 isoform 3 (UniProt P05155)
inactive: citarinostat -0.205 | [4] 0.279

SKA2 (UniProt Q8WVK7)
inactive: vorinostat 0.031

SKAP2 (UniProt O75563)
inactive: [1] -0.138 | [2] 0.043 | silmitasertib 0.155

SELENOM (UniProt Q8WWX9)
inactive: [6] 0.15

SIAH2 (UniProt O43255)
inactive: [1] 0.007 | [2] 0.363 | [3] 0.002 | citarinostat 0.051 | silmitasertib 0.134 | [4] 0.079

SHC1 (UniProt P29353)
inactive: [1] 0.149

SECISBP2 (UniProt Q96T21)
inactive: [2] 0.555 | vorinostat 0.099 | silmitasertib -0.161

SFR1 isoform 2 (UniProt Q86XK3)
inactive: [5] 0.294 | [2] -0.129 | [3] -0.137 | entinostat -0.141 | silmitasertib -0.031 | [6] -0.18

SFXN1 (UniProt D6RDG7)
inactive: [2] 0.135 | silmitasertib 0.207

SH2D3A (UniProt Q9BRG2)
inactive: [3] 0.049

SETD2 (UniProt Q9BYW2)
inactive: [1] -0.003 | vorinostat 0.255

SERPINB5 (UniProt P36952)
inactive: [5] 0.365 | [2] -0.007 | [3] -0.66 | entinostat 0.101 | citarinostat -0.184 | silmitasertib 0.005 | [4] -0.152

SIX5 (UniProt Q8N196)
inactive: [1] -0.065 | [2] -0.033 | vorinostat 0.007 | citarinostat -0.025 | silmitasertib 0.033 | [4] 0.018

SERPIND1 (UniProt P05546)
inactive: [2] 0.119 | vorinostat 0.39 | silmitasertib 0.178 | [6] -0.043

SINHCAF (UniProt Q9NP50)
inactive: [5] 0.677 | entinostat -0.076 | [6] 0.743

SHQ1 (UniProt Q6PI26)
inactive: [3] 0.161
